{
  "source": "paper PMC8450094",
  "key": {"[1]": {"biological_target": "T1, SNM1B H61Y (Homo sapiens) (UniProt Q9H816)", "T1 sequence (looked up)": "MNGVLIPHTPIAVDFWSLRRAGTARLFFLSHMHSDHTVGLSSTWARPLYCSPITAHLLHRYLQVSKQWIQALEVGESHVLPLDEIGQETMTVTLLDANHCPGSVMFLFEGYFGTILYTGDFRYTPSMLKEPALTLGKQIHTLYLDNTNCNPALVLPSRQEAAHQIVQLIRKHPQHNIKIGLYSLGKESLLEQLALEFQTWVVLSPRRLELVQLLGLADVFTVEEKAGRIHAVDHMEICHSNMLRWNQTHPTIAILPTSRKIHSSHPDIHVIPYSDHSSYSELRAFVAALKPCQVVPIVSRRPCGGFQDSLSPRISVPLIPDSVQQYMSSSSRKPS", "test": "fluorescence anisotropy", "details": "10 nM DNA; 5' phosphate; FP: 20 mM HEPES pH 7.5, 50 mM KCl, 0.5 mM TCEP, room temperature, 5 min, DNA 25 nM (Methods) or 50 nM (legends; 10 nM in Suppl. Fig. 14C); recombinant protein; residues 1-335; protein details: C-terminal His10-FLAG, TEV cleavage stated; label: internal fluorescein-dT at position 13; single-stranded DNA"}, "[2]": {"biological_target": "T2, SNM1B/Apollo WT (Homo sapiens) (UniProt Q9H816)", "T2 sequence (looked up)": "T1 sequence (looked up) with Y61H", "test": "fluorescence anisotropy", "details": "10 nM DNA; 5' phosphate; FP: 20 mM HEPES pH 7.5, 50 mM KCl, 0.5 mM TCEP, room temperature, 5 min, DNA 25 nM (Methods) or 50 nM (legends; 10 nM in Suppl. Fig. 14C); recombinant protein; residues 1-335; label: internal fluorescein-dT at position 13; single-stranded DNA"}, "[3]": {"biological_target": "T2, SNM1B/Apollo WT (Homo sapiens)", "test": "EMSA", "details": "1 nM DNA, 37 C, 5 min, EMSA: 1 nM DNA, 10% native PAGE, recombinant protein, residues 1-335, single-stranded DNA"}},
  "note": "Changes are numbered by the printed parent chain. Construct, isoform or probe ends are uncertain for at least one entry. For some of these results: The comparison behind a weaker result is the experiment's own reference, which may not be listed here. Tags and fusion partners may be left off the protein sequences shown.",
  "data": [
    {"sequence": "ATAATTTGATCATCTATTATA [20 nt ssDNA FP probe (probably oligo 19)]", "values": [
      {"measurement": "Kd", "setting": "[1]", "result": 175, "unit": "nM"},
      {"measurement": "Kd", "setting": "[2]", "result": 153, "unit": "nM"}
    ]},
    {"sequence": "ATAATAGATGATCAAATTAT [21 nt ssDNA 5' hydroxyl (oligo 8)]", "values": [
      {"measurement": "binding result", "setting": "[3]; 5' phosphate preferred, 5' OH", "result": "binds more weakly"}
    ]},
    {"sequence": "ATAATAGATGATCAAATTAT [21 nt ssDNA 5' phosphate (oligo 7)]", "values": [
      {"measurement": "binding result", "setting": "[3]; digestion products also seen, 5' phosphate", "result": "binds"}
    ]}
  ]
}
